Measured values from patent publication US6603023B2 (priority 1996, dated 2003).
Where a name gives a salt, the structure may show the parent alone. Some results come without the dose or concentration used.

What follows are compounds tested on CCRF-CEM (assay: Drug combination analysis (combination index, XTT, 72 h)).
Assay type: cell-based, human

Structure (SMILES) | m (median-effect plot parameter)
C/C(=C\c1csc(C)n1)[C@@H]1C[C@@H]2O[C@]2(C)CCC[C@H](C)[C@H](O)[C@@H](C)C(=O)C(C)(C)[C@@H](O)CC(=O)O1 [#8, epothilone B] | 1.716
CC(=O)O[C@H]1C(=O)[C@@]2(C)[C@H]([C@H](OC(=O)c3ccccc3)[C@]3(O)C[C@H](OC(=O)[C@H](O)[C@@H](NC(=O)c4ccccc4)c4ccccc4)C(C)=C1C3(C)C)[C@]1(OC(C)=O)CO[C@@H]1C[C@@H]2O [Taxol ®, paclitaxel] | 2.147
CC[C@]1(O)C[C@@H]2CN(CCc3c([nH]c4ccccc34)[C@@](C(=O)OC)(c3cc4c(cc3OC)N(C)[C@H]3[C@@](O)(C(=O)OC)[C@H](OC(C)=O)[C@]5(CC)C=CCN6CC[C@]43[C@@H]65)C2)C1 [Vinblastine, Vinblastine sulfate] | 1.762
